Source: PMC5354769
No constants are given. Whether binding was seen depends on the method and setting. Binding seen in cells or lysates may run through a third protein. Some entries that bind do so weakly or less than the wild type.

Target: T1, Neogenin-1 (human (endogenous in SK-N-SH)) (UniProt Q92859)
T1 sequence: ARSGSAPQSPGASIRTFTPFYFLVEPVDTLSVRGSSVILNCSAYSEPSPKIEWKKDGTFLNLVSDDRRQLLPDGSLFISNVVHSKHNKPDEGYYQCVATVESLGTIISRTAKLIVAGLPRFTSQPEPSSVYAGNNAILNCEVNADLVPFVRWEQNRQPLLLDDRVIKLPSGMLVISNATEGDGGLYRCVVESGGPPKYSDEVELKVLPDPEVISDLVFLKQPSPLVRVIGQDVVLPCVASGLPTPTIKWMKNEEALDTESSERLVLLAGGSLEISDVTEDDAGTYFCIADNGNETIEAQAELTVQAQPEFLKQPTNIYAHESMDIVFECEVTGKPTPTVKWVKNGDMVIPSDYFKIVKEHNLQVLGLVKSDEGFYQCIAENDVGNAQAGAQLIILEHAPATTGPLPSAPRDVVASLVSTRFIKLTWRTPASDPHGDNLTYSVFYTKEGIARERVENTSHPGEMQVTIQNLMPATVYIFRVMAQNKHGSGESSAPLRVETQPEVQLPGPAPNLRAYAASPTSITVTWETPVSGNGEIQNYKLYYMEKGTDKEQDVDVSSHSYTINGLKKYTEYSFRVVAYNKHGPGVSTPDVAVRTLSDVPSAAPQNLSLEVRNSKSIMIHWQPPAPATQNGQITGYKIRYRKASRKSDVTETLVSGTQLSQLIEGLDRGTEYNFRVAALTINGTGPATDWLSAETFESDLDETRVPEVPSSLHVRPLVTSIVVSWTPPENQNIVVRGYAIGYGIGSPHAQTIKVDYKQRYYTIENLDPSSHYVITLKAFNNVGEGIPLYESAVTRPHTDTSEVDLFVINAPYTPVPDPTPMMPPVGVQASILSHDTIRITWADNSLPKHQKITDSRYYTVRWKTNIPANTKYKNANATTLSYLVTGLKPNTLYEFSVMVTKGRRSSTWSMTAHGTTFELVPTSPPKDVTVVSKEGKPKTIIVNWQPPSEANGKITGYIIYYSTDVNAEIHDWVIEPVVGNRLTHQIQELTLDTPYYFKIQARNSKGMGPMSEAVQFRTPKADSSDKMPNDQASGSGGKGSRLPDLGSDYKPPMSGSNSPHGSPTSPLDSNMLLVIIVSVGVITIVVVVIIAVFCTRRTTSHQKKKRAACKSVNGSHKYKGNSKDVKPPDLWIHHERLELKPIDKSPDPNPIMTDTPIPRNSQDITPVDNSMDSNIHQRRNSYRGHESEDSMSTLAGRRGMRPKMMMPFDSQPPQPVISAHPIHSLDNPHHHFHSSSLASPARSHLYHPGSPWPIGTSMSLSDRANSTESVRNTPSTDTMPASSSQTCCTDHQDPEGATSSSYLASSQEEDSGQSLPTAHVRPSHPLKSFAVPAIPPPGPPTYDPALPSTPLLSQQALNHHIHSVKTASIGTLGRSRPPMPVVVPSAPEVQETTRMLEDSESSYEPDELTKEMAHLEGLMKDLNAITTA
Test: co-IP; SK-N-SH cells incubated 1 h with human recombinant Netrin-4 (200 ng/ml); lysis in 20 mM Tris pH 7.4, 150 mM NaCl, 1% NP-40; 1000 ug total protein precipitated 1 h with protein A/G bead-immobilised antibodies against NEO1 or NTN4; Western blot against NEO1 and NTN4; only the binder purified

binding: binds
B1: Netrin-4 (ligand, UniProt Q9HB63 19-628)
chain: GLSGVAGVSSRCEKACNPRMGNLALGRKLWADTTCGQNATELYCFYSENTDLTCRQPKCDKCNAAYPHLAHLPSAMADSSFRFPRTWWQSAEDVHREKIQLDLEAEFYFTHLIVMFKSPRPAAMVLDRSQDFGKTWKPYKYFATNCSATFGLEDDVVKKGAICTSKYSSPFPCTGGEVIFKALSPPYDTENPYSAKVQEQLKITNLRVQLLKRQSCPCQRNDLNEEPQHFTHYAIYDFIVKGSCFCNGHADQCIPVHGFRPVKAPGTFHMVHGKCMCKHNTAGSHCQHCAPLYNDRPWEAADGKTGAPNECRTCKCNGHADTCHFDVNVWEASGNRSGGVCDDCQHNTEGQYCQRCKPGFYRDLRRPFSAPDACKPCSCHPVGSAVLPANSVTFCDPSNGDCPCKPGVAGRRCDRCMVGYWGFGDYGCRPCDCAGSCDPITGDCISSHTDIDWYHEVPDFRPVHNKSEPAWEWEDAQGFSALLHSGKCECKEQTLGNAKAFCGMKYSYVLKIKILSAHDKGTHVEVNVKIKKVLKSTKLKIFRGKRTLYPESWTDRGCTCPILNPGLEYLVAGHEDIRTGKLIVNMKSFVQHWKPSLGRKVMDILKRECK
